According to patent US20060058231A1:
Results are given in words; binding and its absence hold for the method and conditions named. Some entries that bind do so weakly or less than the wild type. For part of these data: Where a sequence is shown, tags or fusion partners need not be part of it.

Amino acid sequences for entries named in this document (tags omitted). A change or cut given only in a name is not applied to a line headed by its entry. Residues count along the entry.
UniProt P36894, residues 24-152: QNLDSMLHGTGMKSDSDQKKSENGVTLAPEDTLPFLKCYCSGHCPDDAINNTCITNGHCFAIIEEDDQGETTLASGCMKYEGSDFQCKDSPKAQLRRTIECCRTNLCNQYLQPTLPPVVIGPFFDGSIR
UniProt P27037, residues 20-134: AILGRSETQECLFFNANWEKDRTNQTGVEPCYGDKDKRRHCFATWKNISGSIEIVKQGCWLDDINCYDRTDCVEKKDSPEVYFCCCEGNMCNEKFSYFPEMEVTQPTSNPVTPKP
UniProt P18075: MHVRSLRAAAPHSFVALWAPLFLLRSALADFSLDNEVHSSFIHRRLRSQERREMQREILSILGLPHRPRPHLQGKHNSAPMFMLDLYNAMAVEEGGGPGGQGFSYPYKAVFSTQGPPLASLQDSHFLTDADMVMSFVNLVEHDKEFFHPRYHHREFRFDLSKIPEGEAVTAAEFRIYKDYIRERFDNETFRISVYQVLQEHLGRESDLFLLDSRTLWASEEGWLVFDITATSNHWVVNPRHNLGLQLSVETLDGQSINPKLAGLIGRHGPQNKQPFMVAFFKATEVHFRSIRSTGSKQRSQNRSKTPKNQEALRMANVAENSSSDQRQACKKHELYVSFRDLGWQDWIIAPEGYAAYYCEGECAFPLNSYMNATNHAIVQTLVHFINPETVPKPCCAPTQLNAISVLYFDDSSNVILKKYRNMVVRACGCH

Tests used:
[1] = target: T1, ActRIIb receptor/Fc fusion (R&D Systems) (UniProt Q13705); assay: fluorescence polarization and intensity; labeled BMP-7 added to serial dilutions of receptor/Fc
T1 sequence (looked up): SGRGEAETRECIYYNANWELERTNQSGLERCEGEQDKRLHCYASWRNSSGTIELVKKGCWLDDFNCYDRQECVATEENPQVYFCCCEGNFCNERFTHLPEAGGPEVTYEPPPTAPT

[2] = target: BMPRIa receptor/Fc fusion (R&D Systems) (UniProt P36894); assay: as above
[3] = target: ActRIIa receptor/Fc fusion (R&D Systems) (UniProt P27037); assay: as above
[4] = target: ActRIIa receptor/Fc fusion (R&D Systems) (UniProt P27037); assay: AlphaScreen competition: unlabeled BMP-7 titrated against biotinylated Y65N/S120D BMP-7 for ActRIIa-Fc; y axis 0-100 without label [upper left panel with the sheet upright (A by the legend); letter not given]
[5] = target: T2, BMPRII receptor/Fc fusion (R&D Systems) (UniProt Q13873); assay: AlphaScreen competition with biotinylated Y65N/S120D BMP-7
T2 sequence (looked up): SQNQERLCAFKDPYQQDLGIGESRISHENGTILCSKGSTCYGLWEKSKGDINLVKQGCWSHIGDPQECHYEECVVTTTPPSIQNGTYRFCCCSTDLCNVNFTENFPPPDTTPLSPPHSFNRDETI

[6] = target: ActRIIa receptor/Fc fusion (R&D Systems) (UniProt P27037); assay: as above
[7] = target: T3, BMPRIb receptor/Fc fusion (R&D Systems) (UniProt O00238); assay: as above
T3 sequence (looked up): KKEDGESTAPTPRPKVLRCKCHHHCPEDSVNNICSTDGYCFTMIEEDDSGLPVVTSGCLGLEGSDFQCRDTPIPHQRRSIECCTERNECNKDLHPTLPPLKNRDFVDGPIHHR

[8] = target: T3, BMPRIb receptor/Fc fusion (R&D Systems); assay: AlphaScreen competition: unlabeled BMP-7 titrated against biotinylated Y65N/S120D BMP-7 for BMPRIb-Fc; y axis 0-100 without label [upper left panel with the sheet upright (A by the legend); letter not given]
[9] = target: T2, BMPRII receptor/Fc fusion (R&D Systems); assay: AlphaScreen competition: unlabeled BMP-7 titrated against biotinylated Y65N/S120D BMP-7 for BMPRII-Fc; y axis 0-100 without label [upper left panel with the sheet upright (A by the legend); letter not given]
[10] = target: T3, BMPRIb receptor/Fc fusion (R&D Systems); assay: AlphaScreen competition: unlabeled variant titrated against biotinylated Y65N/S120D BMP-7 for BMPRIb-Fc; y axis 0-100 without label [upper right panel with the sheet upright (B by the legend); letter not given]
[11] = target: ActRIIa receptor/Fc fusion (R&D Systems) (UniProt P27037); assay: AlphaScreen competition: unlabeled variant titrated against biotinylated Y65N/S120D BMP-7 for ActRIIa-Fc; y axis 0-100 without label [upper right panel with the sheet upright (B by the legend); letter not given]
[12] = target: T2, BMPRII receptor/Fc fusion (R&D Systems); assay: AlphaScreen competition: unlabeled variant titrated against biotinylated Y65N/S120D BMP-7 for BMPRII-Fc; y axis 0-100 without label [upper right panel with the sheet upright (B by the legend); letter not given]
[13] = target: ActRIIa receptor/Fc fusion (R&D Systems) (UniProt P27037); assay: AlphaScreen competition: unlabeled variant titrated against biotinylated Y65N/S120D BMP-7 for ActRIIa-Fc; y axis 0-100 without label [lower right panel with the sheet upright (D by the legend); letter not given]
[14] = target: BMPRIa receptor/Fc fusion (R&D Systems) (UniProt P36894); assay: plate direct binding assay, BMP-7 from conditioned medium captured by anti-BMP-7 antibody, receptor-Fc titrated in 12 points; EC50 drawn as a bar, no number given
[15] = target: ActRIIa receptor/Fc fusion (R&D Systems) (UniProt P27037); assay: as above
[16] = target: T3, BMPRIb receptor/Fc fusion (R&D Systems); assay: AlphaScreen competition: unlabeled variant titrated against biotinylated Y65N/S120D BMP-7 for BMPRIb-Fc; y axis 0-100 without label [lower left panel with the sheet upright (C by the legend); letter not given]
[17] = target: ActRIIa receptor/Fc fusion (R&D Systems) (UniProt P27037); assay: AlphaScreen competition: unlabeled variant titrated against biotinylated Y65N/S120D BMP-7 for ActRIIa-Fc; y axis 0-100 without label [lower left panel with the sheet upright (C by the legend); letter not given]
[18] = target: T2, BMPRII receptor/Fc fusion (R&D Systems); assay: AlphaScreen competition: unlabeled variant titrated against biotinylated Y65N/S120D BMP-7 for BMPRII-Fc; y axis 0-100 without label [lower left panel with the sheet upright (C by the legend); letter not given]
[19] = target: T2, BMPRII receptor/Fc fusion (R&D Systems); assay: plate direct binding assay, receptor-Fc detection, 12-point dilution of conditioned media
[20] = target: ActRIIa receptor/Fc fusion (R&D Systems) (UniProt P27037); assay: as above
[21] = target: ActRIIa receptor/Fc fusion (R&D Systems) (UniProt P27037); assay: fluorescence anisotropy, single point with 10 uM ActRIIa
[22] = target: T1, ActRIIb receptor/Fc fusion (R&D Systems); assay: fluorescence anisotropy, labeled BMP-7 added to serial dilutions of receptor/Fc fusion (x axis [receptor] uM)
[23] = target: BMPRIa receptor/Fc fusion (R&D Systems) (UniProt P36894); assay: as above
[24] = target: ActRIIa receptor/Fc fusion (R&D Systems) (UniProt P27037); assay: as above

Measured: binding

fluorescently labeled BMP-7 (variant Y65N/S120D labeled with AlexaFluor 568 or with C6-FXS) (from UniProt P18075 293-431 at identity 0.98)) (ligand)
binds: [1] | [2] | [3]

recombinant human BMP-7 (R&D Systems) (from UniProt P18075 293-431 at identity 0.99)) (ligand)
binds: [4] | [5] | [6] | [7] | [8] | [9]

BMP-7 variant 565 (Y65N/F93T/R129D) (from UniProt P18075 293-431 at identity 0.97)) (ligand)
binds: [10] | [5] | [6] | [7] | [11] | [12]

BMP-7 variant 504 (Y65N/S120D) (from UniProt P18075 293-431 at identity 0.98)) (ligand)
binds: [6] | [13] | [14] | [15]

BMP-7 variant 526 (K39S/S120D/R134E) (from UniProt P18075 293-431 at identity 0.97)) (ligand)
binds: [16] | [5] | [6] | [7] | [17] | [18]

BMP-7 variant M23N (from UniProt P18075 293-431 at identity 0.99)) (ligand)
binds: [19]

BMP-7 variant I86D (from UniProt P18075 293-431 at identity 0.99)) (ligand)
binds: [20]

BMP-7 variant Q53H (from UniProt P18075 293-431 at identity 0.99)) (ligand)
binds: [20]

Alexa568-labeled Y65N/S120D BMP-7 (from UniProt P18075 293-431 at identity 0.98)) (ligand)
binds: [21] | [22] | [23] | [24]

BMP-7 variant Q53G (from UniProt P18075 293-431 at identity 0.99)) (ligand)
binds: [19]
